Assay results reported in paper PMC6659632, “Preferential phosphatidylinositol 5-phosphate binding contributes to a destabilization of the VHS domain structure of Tom1” (Scientific Reports, 2019).
No constants are given. Whether binding was seen depends on the method and setting.

Protein sequences, listed by entry. Tags and fused reporters are not part of them. Residues count along the entry.
UniProt O60784, residues 20-152: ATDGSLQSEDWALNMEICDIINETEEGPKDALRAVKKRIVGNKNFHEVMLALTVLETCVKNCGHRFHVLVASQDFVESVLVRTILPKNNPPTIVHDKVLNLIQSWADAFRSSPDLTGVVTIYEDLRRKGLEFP

Molecular target: Tom1 VHS domain (human) (UniProt O60784)
Assay: SEC + other: dynamic light scattering; Superdex 75 in 50 mM Tris-HCl (pH 7.3), 500 mM NaCl with or without 1 mM DTT; DLS at 25 °C, Tom1 VHS 0.8 mg/ml in 20 mM HEPES (pH 7.4), 150 mM KCl; mass also checked by ESI-MS; both purified

binding: no binding (tested: 0.8 mg/ml)
Substance: Tom1 VHS domain (from UniProt O60784 20-152) (domain or fragment)
